The list shows a part of the results. This is a noisy data set.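 Many melting curves are irregular; where none melted, Tm was taken as 64 °C.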
Compound: CCc1cnccc1C(=O)Nc1cc2c(cc1F)NC(=O)CC2
Assay: melting temperature shift (DMSO Tm minus MBE1-treated Tm) in cellular thermal proteome profiling; higher = less thermal stabilization by MBE1 (negative = stabilized by MBE1)
Conditions: A375

Chains of the proteins cited; added tags and fusions are not shown. Lines headed by an entry give the natural chain unless they say otherwise; changes in a name come on top.
UniProt P37268: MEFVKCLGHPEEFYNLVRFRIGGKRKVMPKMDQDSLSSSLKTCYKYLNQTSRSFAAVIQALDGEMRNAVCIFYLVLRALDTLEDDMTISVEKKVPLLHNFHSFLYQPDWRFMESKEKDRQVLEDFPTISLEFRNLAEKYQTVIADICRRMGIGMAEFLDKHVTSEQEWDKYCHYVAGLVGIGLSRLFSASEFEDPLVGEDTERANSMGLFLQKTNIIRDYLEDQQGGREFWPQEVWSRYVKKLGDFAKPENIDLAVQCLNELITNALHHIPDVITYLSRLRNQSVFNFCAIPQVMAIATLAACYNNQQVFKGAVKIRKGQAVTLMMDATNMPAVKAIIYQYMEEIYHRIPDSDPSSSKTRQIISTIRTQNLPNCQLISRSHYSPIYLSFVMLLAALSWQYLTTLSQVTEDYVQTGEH
UniProt P43378: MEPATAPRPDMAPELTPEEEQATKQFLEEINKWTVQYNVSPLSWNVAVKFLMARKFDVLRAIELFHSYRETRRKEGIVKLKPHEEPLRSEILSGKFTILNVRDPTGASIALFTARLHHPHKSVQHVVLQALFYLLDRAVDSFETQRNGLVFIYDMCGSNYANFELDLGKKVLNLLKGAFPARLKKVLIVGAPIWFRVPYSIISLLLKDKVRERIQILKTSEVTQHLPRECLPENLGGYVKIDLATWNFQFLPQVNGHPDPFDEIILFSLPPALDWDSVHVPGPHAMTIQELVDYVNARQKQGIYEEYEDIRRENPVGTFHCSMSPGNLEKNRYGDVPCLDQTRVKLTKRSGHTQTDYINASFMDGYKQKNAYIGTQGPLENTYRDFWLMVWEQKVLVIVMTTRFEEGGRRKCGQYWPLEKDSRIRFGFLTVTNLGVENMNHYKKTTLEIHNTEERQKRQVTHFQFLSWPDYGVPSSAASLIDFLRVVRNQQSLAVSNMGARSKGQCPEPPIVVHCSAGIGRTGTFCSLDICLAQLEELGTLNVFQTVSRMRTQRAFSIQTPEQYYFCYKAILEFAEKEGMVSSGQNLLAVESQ
UniProt P42330: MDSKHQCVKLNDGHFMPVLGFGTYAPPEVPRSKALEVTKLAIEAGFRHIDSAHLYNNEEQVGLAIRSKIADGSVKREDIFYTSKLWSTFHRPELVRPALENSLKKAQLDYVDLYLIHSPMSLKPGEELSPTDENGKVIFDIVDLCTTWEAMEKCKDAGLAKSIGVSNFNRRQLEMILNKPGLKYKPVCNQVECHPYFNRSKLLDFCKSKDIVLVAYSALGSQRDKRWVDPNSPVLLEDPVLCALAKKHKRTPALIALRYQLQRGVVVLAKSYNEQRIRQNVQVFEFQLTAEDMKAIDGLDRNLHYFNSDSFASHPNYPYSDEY
UniProt P49023, whole entry: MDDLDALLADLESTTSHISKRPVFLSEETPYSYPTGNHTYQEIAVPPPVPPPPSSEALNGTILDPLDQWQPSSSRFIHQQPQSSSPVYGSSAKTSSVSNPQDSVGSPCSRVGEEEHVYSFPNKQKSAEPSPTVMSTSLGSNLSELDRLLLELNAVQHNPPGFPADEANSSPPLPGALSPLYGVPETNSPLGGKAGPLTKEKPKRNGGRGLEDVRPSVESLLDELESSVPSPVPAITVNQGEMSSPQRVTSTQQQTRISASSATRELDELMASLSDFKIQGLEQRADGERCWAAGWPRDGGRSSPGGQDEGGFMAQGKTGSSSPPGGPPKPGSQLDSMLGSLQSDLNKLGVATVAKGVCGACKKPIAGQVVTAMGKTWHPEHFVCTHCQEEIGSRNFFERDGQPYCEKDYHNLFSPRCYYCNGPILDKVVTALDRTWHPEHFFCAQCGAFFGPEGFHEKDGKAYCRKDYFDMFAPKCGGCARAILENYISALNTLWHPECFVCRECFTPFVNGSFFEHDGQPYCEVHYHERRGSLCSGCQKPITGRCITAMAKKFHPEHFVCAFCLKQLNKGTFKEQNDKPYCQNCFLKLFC
UniProt P49116: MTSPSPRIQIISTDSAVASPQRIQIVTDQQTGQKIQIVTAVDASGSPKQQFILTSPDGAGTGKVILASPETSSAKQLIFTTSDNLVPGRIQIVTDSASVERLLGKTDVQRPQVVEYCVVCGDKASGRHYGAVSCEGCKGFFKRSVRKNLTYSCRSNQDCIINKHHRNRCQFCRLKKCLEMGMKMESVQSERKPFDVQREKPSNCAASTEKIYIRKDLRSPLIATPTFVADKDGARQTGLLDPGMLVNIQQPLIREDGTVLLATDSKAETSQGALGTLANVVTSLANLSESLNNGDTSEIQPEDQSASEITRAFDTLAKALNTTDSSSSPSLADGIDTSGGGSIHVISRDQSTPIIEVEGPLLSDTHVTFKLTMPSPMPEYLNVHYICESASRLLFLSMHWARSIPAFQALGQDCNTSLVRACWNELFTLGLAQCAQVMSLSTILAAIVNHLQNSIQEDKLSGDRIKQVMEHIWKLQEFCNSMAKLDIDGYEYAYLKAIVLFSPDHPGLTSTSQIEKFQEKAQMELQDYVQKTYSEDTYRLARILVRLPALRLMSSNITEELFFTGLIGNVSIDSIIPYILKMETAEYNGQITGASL
UniProt P50747: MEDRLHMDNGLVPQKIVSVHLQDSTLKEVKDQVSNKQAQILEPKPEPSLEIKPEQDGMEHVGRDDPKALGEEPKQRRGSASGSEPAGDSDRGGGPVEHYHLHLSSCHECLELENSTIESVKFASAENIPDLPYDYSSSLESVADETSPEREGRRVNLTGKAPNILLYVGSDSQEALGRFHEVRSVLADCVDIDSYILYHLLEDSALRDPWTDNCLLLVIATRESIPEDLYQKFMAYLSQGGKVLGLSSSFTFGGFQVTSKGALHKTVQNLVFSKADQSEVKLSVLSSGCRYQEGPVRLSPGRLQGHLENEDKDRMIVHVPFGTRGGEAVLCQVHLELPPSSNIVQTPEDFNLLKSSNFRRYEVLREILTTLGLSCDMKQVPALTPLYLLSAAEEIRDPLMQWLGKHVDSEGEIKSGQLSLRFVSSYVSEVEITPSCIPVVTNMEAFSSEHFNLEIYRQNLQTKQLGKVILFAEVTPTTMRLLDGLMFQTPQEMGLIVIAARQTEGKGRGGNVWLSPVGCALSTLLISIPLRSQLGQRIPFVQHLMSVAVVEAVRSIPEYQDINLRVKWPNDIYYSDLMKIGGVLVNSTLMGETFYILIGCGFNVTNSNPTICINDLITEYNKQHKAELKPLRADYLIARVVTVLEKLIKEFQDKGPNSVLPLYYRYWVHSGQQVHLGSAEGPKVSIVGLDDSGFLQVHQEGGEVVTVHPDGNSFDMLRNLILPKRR
UniProt P48047: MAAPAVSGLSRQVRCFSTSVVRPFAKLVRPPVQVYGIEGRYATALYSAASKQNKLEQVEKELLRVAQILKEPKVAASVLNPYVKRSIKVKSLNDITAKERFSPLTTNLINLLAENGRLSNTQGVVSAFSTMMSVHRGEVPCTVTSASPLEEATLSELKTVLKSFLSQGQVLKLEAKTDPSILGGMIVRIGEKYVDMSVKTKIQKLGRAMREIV
UniProt P45973, whole entry: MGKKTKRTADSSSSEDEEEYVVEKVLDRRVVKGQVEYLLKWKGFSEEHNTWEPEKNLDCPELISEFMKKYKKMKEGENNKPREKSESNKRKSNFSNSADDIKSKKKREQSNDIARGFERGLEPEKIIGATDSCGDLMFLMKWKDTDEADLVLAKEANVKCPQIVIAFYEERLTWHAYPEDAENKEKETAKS
UniProt P46736, whole entry: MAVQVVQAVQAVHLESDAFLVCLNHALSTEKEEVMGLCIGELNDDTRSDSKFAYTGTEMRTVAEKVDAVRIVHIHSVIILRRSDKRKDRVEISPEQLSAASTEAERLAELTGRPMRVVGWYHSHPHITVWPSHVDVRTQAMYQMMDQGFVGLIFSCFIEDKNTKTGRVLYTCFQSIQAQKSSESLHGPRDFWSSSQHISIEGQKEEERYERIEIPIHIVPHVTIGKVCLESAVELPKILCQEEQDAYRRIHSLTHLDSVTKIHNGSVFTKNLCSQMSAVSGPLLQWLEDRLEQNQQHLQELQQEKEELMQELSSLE
UniProt P49903: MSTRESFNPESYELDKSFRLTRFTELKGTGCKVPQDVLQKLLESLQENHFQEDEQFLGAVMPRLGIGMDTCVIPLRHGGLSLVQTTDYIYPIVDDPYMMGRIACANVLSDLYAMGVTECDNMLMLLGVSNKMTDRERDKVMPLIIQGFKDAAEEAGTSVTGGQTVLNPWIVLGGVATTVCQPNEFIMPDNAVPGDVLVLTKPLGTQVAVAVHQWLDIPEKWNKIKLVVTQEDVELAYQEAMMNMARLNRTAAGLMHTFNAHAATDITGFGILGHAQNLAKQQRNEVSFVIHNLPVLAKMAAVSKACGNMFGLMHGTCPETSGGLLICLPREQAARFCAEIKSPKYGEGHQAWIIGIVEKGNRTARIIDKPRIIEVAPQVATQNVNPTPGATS
UniProt P48200: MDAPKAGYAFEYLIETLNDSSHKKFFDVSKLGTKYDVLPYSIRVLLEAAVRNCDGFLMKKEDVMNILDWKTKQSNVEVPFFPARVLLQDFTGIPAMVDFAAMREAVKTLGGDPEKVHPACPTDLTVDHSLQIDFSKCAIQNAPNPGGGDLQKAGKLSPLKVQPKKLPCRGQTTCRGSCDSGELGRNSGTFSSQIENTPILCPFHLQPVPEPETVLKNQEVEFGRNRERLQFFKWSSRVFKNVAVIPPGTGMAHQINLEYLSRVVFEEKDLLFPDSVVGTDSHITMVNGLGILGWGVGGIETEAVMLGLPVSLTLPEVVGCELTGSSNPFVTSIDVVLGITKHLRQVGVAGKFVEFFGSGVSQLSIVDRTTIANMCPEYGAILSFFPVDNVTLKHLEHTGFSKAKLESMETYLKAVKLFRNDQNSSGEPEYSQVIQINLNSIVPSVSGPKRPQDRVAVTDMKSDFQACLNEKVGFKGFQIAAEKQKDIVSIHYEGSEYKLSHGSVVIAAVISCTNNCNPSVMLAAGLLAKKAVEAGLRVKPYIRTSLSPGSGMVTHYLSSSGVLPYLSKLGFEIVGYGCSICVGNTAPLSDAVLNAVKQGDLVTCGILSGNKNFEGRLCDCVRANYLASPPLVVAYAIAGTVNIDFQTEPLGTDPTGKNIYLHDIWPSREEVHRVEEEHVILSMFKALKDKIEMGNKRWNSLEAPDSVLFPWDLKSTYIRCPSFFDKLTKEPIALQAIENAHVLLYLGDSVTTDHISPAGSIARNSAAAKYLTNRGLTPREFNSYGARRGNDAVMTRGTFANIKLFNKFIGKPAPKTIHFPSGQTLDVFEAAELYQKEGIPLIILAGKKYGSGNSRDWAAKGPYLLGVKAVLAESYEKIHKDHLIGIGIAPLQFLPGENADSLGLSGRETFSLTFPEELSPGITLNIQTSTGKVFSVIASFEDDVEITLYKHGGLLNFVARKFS
UniProt P46020: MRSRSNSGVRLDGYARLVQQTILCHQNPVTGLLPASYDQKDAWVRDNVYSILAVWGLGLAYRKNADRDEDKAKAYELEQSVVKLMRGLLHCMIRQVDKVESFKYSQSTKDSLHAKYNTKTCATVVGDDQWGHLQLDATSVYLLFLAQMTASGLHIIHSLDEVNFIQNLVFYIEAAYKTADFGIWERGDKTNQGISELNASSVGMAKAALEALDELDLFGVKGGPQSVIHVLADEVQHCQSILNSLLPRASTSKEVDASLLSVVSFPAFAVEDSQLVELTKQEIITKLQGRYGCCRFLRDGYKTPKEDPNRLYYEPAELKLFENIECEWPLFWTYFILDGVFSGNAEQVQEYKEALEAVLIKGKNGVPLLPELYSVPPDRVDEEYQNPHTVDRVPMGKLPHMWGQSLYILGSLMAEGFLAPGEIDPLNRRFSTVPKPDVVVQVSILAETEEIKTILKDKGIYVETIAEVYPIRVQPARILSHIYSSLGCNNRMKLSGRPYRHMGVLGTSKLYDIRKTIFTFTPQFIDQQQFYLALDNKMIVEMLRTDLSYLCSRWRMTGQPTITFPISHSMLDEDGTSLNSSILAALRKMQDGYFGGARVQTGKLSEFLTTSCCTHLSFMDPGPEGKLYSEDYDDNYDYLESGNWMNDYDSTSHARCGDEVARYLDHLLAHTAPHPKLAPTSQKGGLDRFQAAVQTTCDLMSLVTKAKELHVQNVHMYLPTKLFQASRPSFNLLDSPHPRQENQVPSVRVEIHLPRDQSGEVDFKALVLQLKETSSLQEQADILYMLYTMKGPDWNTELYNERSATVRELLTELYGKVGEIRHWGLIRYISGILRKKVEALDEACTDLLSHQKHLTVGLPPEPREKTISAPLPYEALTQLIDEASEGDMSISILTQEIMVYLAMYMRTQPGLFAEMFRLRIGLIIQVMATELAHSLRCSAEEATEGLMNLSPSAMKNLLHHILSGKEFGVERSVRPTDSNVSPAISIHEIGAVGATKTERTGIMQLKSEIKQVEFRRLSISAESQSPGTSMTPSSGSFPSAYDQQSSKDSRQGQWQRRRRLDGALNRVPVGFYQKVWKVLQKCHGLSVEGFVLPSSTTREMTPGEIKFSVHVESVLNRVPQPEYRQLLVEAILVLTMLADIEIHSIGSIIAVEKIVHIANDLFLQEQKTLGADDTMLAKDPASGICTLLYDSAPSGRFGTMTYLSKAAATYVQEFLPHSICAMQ

Target	melting temperature shift (MBE1 concentration: 100 nM) [°C]	melting temperature shift (MBE1 concentration: 1 uM) [°C]
FDFT1 (UniProt P37268)	-0.055	0.47
IDH2 (UniProt P48735)	0.657	0.44
NEDD4 (UniProt P46934)	0.562	-0.275
LSS (UniProt P48449)	-0.449	-0.101
PTPN9 (UniProt P43378)	-0.0518	-0.301
ALDH3A2 (UniProt P51648)	0.891	0.58
UniProt P42330	0.287	-0.0611
RPL34 (UniProt P49207)	-0.443	-0.806
PXN (UniProt P49023)	-1.74	-3.07
UniProt P49116	0.867	-0.0794
ARCN1 (UniProt P48444)	-0.999	-0.144
ARRB1 (UniProt P49407)	-0.0469	0.215
HCFC1 (UniProt P51610)	-0.657	0.0201
ATRX (UniProt P46100)	-0.0705	0.147
DHPS (UniProt P49366)	-1.12	-1
CLCN6 (UniProt P51797)	-1.57	-1.01
RFC5 (UniProt P40937)	0.867	0.183
HLCS (UniProt P50747)	0.855	1.03
NT5C2 (UniProt P49902)	-0.861	-0.415
EIF4A3 (UniProt P38919)	-0.315	0.462
UniProt P49356	1.4	0.794
RPS19 (UniProt P39019)	-0.592	0.238
GSS (UniProt P48637)	-0.993	-0.766
ATP5O (UniProt P48047)	-0.836	-1.73
ABL2 (UniProt P42684)	-1.08	-0.781
CBX5 (UniProt P45973)	0.995	-0.672

14 consecutive entries out of the list so far, for reference:
Target	melting temperature shift (MBE1 concentration: 100 nM) [°C]	melting temperature shift (MBE1 concentration: 1 uM) [°C]
ARRB1 (UniProt P49407)	-0.0469	0.215
HCFC1 (UniProt P51610)	-0.657	0.0201
ATRX (UniProt P46100)	-0.0705	0.147
DHPS (UniProt P49366)	-1.12	-1
CLCN6 (UniProt P51797)	-1.57	-1.01
RFC5 (UniProt P40937)	0.867	0.183
HLCS (UniProt P50747)	0.855	1.03
NT5C2 (UniProt P49902)	-0.861	-0.415
EIF4A3 (UniProt P38919)	-0.315	0.462
UniProt P49356	1.4	0.794
RPS19 (UniProt P39019)	-0.592	0.238
GSS (UniProt P48637)	-0.993	-0.766
ATP5O (UniProt P48047)	-0.836	-1.73
ABL2 (UniProt P42684)	-1.08	-0.781

The results go on:

Target	melting temperature shift (MBE1 concentration: 100 nM) [°C]	melting temperature shift (MBE1 concentration: 1 uM) [°C]
EIF2D (UniProt P41214)	-0.941	-0.122
RECQL (UniProt P46063)	-0.77	-0.309
BRCC3 (UniProt P46736)	-3.02	0.738
IL6ST (UniProt P40189)	-4.6	0.342
UniProt P51178	-0.238	0.128
UniProt P47897	-0.828	-0.127
UniProt P49641	-0.845	0.711
FEN1 (UniProt P39748)	-0.588	-0.659
HELZ (UniProt P42694)	-1.43	-1.52
SEPHS1 (UniProt P49903)	-3.55	0.065
CCT4 (UniProt P50991)	-0.786	-0.749
PRIM2 (UniProt P49643)	0.376	0.202
MTIF2 (UniProt P46199)	-0.243	-0.352
RANGAP1 (UniProt P46060)	0.165	-0.316
MATK (UniProt P42679)	0.287	-0.873
UniProt P38398	-0.147	-0.551
IRAK1 (UniProt P51617)	-1.26	-0.278
UniProt P46734	-0.0122	-0.598
IREB2 (UniProt P48200)	0.485	0.0423
CDC34 (UniProt P49427)	-0.872	-1.02
PHKA2 (UniProt P46019)	1.17	-0.22
MTOR (UniProt P42345)	0.574	0.128
EIF1AX (UniProt P47813)	-0.501	0.22
KDM5C (UniProt P41229)	-0.858	-0.3
PHKA1 (UniProt P46020)	0.169	0.343

Reference: the supplement of paper PMC12595434, “Development of retinoid nuclear receptor pathway antagonists through targeting aldehyde dehydrogenase 1A3” (iScience, 2025)
